This list was built around the results that the source calls inconclusive (neither active nor inactive); the mix of calls is not that of the screen. Where the call is inconclusive, the potency comes from a doubtful curve fit. Active and inactive are the calls of the source. The call rests on the fitted dose curve; in most records, active means well fitted activation curve with a large enough effect in the repeat runs; inconclusive means weak or mixed curves; inactive means no such curve, though single readings can be large or run the other way.
biological target: Nuclear receptor subfamily 1 group I member 2 (Homo sapiens) (UniProt O75469); test: Human pregnane X receptor (PXR) small molecule agonists, qHTS assay (AID 1346982); conditions: PXR-Luc HepG2, CYP3A4 luciferase reporter, 24 h; series mostly up to 92.4 µM; activation: at the top concentration; further: nearly all actives have a fitted effect of over 35% in size; on activation: on the % scale 0 is the no-effect control and ±100 the full control effect
In short: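 We seeded PXR-Luc HepG2 cells in assay medium containing 5% charcoal-stripped FBS, added compounds 5 hr later, incubated 24 hr, and read luminescence with ONE-Glo reagent.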
Potency means the concentration at half of the fitted maximal effect.

Amino acid sequences for entries named in this document (tags omitted). A change or cut given only in a name is not applied to a line headed by its entry.
UniProt Q9R1A7: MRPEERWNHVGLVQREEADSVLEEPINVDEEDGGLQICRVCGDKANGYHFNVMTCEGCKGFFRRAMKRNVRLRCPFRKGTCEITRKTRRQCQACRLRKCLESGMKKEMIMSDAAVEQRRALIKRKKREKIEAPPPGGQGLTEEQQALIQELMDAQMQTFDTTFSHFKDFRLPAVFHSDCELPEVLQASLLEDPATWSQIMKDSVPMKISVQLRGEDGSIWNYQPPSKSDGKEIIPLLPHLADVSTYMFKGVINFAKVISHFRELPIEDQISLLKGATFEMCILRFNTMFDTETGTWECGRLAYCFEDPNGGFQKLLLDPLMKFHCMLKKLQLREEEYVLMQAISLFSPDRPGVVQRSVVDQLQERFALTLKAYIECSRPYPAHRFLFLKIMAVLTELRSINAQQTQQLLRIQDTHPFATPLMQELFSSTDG

| Compound | Potency | activation |
| --- | --- | --- |
| CCCc1ccc(N)cc1 | inconclusive: 61.1 µM [activator, partial curve] |  |
| Brc1nc2ccccc2s1 | inconclusive: 38.6 µM [activator, partial curve, poor fit] |  |
| CCCCCc1ccc(Cl)cc1 |  | inactive: -5.28% |
| CCOC(=O)CS |  | inactive: 5.47% |
| C=CCCCCCCCCCCCCCCCC |  | inactive: -1.52% [at 8.39 µM] |

biological target: Nuclear receptor subfamily 1 group I member 2 (Rattus norvegicus) (UniProt Q9R1A7); test: Rat pregnane X receptor (rPXR) activation by small molecules, qHTS assay (AID 1346983); conditions: rPXR luciferase reporter cells, One-Glo luminescence, 24 h; max activation: hits give high values; further: nearly all actives have a fitted effect of over 20% in size; on max activation: on the % scale 0 is the no-effect control and ±100 the full control effect
In short: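 Cell-based rPXR activation assay: rPXR cells, 2,000 per well, rested 5hr at 37 C, then exposed to compounds in DMSO for 24 hr at 37 C. Luciferase activity read by One-Glo luminescence after 30 min at room temperature.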

| Compound | Potency | max activation |
| --- | --- | --- |
| Cc1ccc(C(C)C)cc2c(C)ccc1-2 | inconclusive: 22.4 µM [activator, partial curve] |  |
| CC(C)(C)NCC(O)COc1cccc2c1C[C@H](O)[C@H](O)C2 (stereo partly specified) |  | inactive: -1.94% |
| CN1CC(=O)N/C1=N/C(=O)Nc1cccc(Cl)c1 | inconclusive: 15.8 µM [activator, partial curve] |  |

biological target: Nuclear receptor subfamily 1 group I member 2 (Homo sapiens) (UniProt O75469); test: CYP3A4 induction through human pregnane X receptor (PXR) by small molecules, qHTS assay (AID 1346984); conditions: DPX-2 HepG2 PXR, CYP3A4-luciferin luminescence, 24 h; series mostly up to 46.1 µM; activation: at the top concentration; further: nearly all actives have a fitted effect of over 40% in size
In short: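 qHTS, concentration-response format: HepG2 DPX-2 line, PXR/CYP3A4-luc. Exposure 24 h, 37C. Substrate Luciferin-IPA 3uM final, 3 h. Detection One-Glo, 30 min RT.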

| Compound | Potency |
| --- | --- |
| CC(=O)SC[C@@H](Cc1ccccc1)C(=O)NCC(=O)OCc1ccccc1 | inconclusive: 11.2 µM [activator, partial curve, poor fit] |
| COc1cc(NC(C)CCCN)c2ncccc2c1 (stereo unspecified) | inconclusive: 0.0251 µM [activator, full curve, poor fit] |
| CC(C)C1CCC(C(=O)N[C@H](Cc2ccccc2)C(=O)O)CC1 (stereo partly specified) | inconclusive: 20 µM [activator, partial curve, poor fit] |

Reference: PubChem BioAssay (Tox21)
